Measurements reported in patent US4611054A, “Cyclic hexapeptide somatostatin analogs” (Merck & Co., Inc., priority 1985, dated 1986).
At least one peptide structure holds a part that was inferred or is arguable (an end, a ring closure or a residue). Starred links: 1 amine or outer side, 2 acyl side, 3 side chain; linkers in the order of their positions; H or OH if unused. Non-standard residues stand in square brackets, D forms with d. Residues, ends and D or L forms follow the SMILES beside them. X1 = O=C(CSC[C@@H](Cc1ccccc1)N[*:1])[*:2]; X2 = O=C(CSC[C@H](Cc1ccccc1)N[*:1])[*:2]

Key:
portal vein insulin = experiment: Decrease of portal vein insulin levels in anesthetized rats, compared to somatostatin; format: in vivo, Male Sprague-Dawley rats; conditions: multiples or fractions of the effect of somatostatin (=1), external jugular vein administration, portal vein blood after 5 minutes
Growth Hormone Release = experiment: Growth hormone release inhibition relative to somatostatin; conditions: multiples or fractions of the effect of somatostatin (somatostatin = arbitrary value of 1)
portal vein glucagon = experiment: Decrease of portal vein glucagon levels in anesthetized rats, compared to somatostatin; format: in vivo, Male Sprague-Dawley rats; conditions: multiples or fractions of the effect of somatostatin (=1), external jugular vein administration, portal vein blood after 5 minutes

Structure (SMILES)	Insulin Inhibition (portal vein insulin)	Growth Hormone Release Inhibition (Growth Hormone Release)	Glucagon Inhibition (portal vein glucagon)
C[C@@H](O)[C@@H]1NC(=O)[C@H](CCCCN)NC(=O)[C@@H](Cc2c[nH]c3ccccc23)NC(=O)[C@H](Cc2ccccc2)NC(=O)CSC[C@@H](Cc2ccccc2)NC1=O [Cyclo(D-Trp-Lys-Thr-D-Phe.psi.[CH2 S]-Gly-Phe)] (cyclo(F[dW]KT[X1]))	0.2	0.06	0.2
C[C@@H](O)[C@@H]1NC(=O)[C@H](CCCCN)NC(=O)[C@@H](Cc2c[nH]c3ccccc23)NC(=O)[C@H](Cc2ccccc2)NC(=O)CSC[C@H](Cc2ccccc2)NC1=O [Cyclo(D-Trp-Lys-Thr-Phe.psi.[CH2 S]Gly-Phe)] (cyclo(F[dW]KT[X2]))	1.5	1.36	1.11
C[C@@H](O)[C@@H]1NC(=O)[C@H](CCCCN)NC(=O)[C@H](Cc2c[nH]c3ccccc23)NC(=O)[C@H](Cc2ccccc2)NC(=O)CSC[C@@H](Cc2ccccc2)NC1=O [Cyclo(Trp-Lys-Thr-D-Phe.psi.[CH2 S]Gly-Phe)] (cyclo(FWKT[X1]))	0.07		
